This assay deals with T1, HA-ADAM23 (UniProt O75077 287-832).
T1 construct: ADAM23 (A Disintegrin And Metalloprotease domain 23) receptor, cDNA; Expression of HA-ADAM23 in HEK293T was lower than that of HA-ADAM22; also called HA-tagged ADAM23; HA-fused ADAM23; source: COS7, co-transfected, on cells (immunofluorescence); HEK293T, co-transfected, in lysate (co-IP)
T1 sequence (looked up): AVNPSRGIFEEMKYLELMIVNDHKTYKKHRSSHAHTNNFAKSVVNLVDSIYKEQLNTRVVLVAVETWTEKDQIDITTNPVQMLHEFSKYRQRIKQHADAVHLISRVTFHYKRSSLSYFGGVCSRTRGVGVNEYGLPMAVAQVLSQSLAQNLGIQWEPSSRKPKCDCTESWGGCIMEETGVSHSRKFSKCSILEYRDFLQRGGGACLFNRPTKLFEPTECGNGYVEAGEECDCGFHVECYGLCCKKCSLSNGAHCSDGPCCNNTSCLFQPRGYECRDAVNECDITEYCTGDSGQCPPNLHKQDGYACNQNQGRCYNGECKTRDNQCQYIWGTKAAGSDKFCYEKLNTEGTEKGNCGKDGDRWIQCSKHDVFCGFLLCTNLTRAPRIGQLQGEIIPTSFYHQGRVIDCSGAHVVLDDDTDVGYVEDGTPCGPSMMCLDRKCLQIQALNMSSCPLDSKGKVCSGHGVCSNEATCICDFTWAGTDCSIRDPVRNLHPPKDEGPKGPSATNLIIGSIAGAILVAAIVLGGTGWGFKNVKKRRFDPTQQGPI
The assay can be described thus: co-IP; HEK293T cells co-transfected with LGI1-Flag (wild type or mutant) and HA-ADAM22 or HA-ADAM23; lysed 36 h after transfection (1% Tween 20); anti-HA antibody and Protein G sepharose, 4°C; washes with 250 mM NaCl; blots with anti-HA and anti-LGI1.

Results are given in words; binding and its absence hold for the method and conditions named. In cells and extracts the contact can be indirect. Some results given as binding are weak or reduced against the parent protein; the word gives no strength. Sequences can lack the tags named with a protein.

B1: wild type LGI1-Flag (leucine-rich, glioma-inactivated 1) (ligand, human, UniProt O95970 35-557, looked up)
chain: KKPAKPKCPAVCTCTKDNALCENARSIPRTVPPDVISLSFVRSGFTEISEGSFLFTPSLQLLLFTSNSFDVISDDAFIGLPHLEYLFIENNNIKSISRHTFRGLKSLIHLSLANNNLQTLPKDIFKGLDSLTNVDLRGNSFNCDCKLKWLVEWLGHTNATVEDIYCEGPPEYKKRKINSLSSKDFDCIITEFAKSQDLPYQSLSIDTFSYLNDEYVVIAQPFTGKCIFLEWDHVEKTFRNYDNITGTSTVVCKPIVIETQLYVIVAQLFGGSHIYKRDSFANKFIKIQDIEILKIRKPNDIETFKIENNWYFVVADSSKAGFTTIYKWNGNGFYSHQSLHAWYRDTDVEYLEIVRTPQTLRTPHLILSSSSQRPVIYQWNKATQLFTNQTDIPNMEDVYAVKHFSVKGDVYICLTRFIGDSKVMKWGGSSFQDIQRMPSRGSMVFQPLQINNYQYAILGSDYSFTQVYNWDAEKAKFVKFQELNVQAPRSFTHVSINKRNFLFASSFKGNTQIYKHVIVDLSA
notes: the protein has a signal peptide and is secreted; also called LGI1 wild type; WT; source: COS7, co-transfected with HA-ADAM22 or HA-ADAM23 (immunofluorescence); HEK293T, co-transfected, in lysate (co-IP)
B1: the binding result was “binds”.

B2: LGI1-T380A (Flag-tagged) (ligand, UniProt O95970 35-557)
chain: KKPAKPKCPAVCTCTKDNALCENARSIPRTVPPDVISLSFVRSGFTEISEGSFLFTPSLQLLLFTSNSFDVISDDAFIGLPHLEYLFIENNNIKSISRHTFRGLKSLIHLSLANNNLQTLPKDIFKGLDSLTNVDLRGNSFNCDCKLKWLVEWLGHTNATVEDIYCEGPPEYKKRKINSLSSKDFDCIITEFAKSQDLPYQSLSIDTFSYLNDEYVVIAQPFTGKCIFLEWDHVEKTFRNYDNITGTSTVVCKPIVIETQLYVIVAQLFGGSHIYKRDSFANKFIKIQDIEILKIRKPNDIETFKIENNWYFVVADSSKAGFTTIYKWNGNGFYSHQSLHAWYRDADVEYLEIVRTPQTLRTPHLILSSSSQRPVIYQWNKATQLFTNQTDIPNMEDVYAVKHFSVKGDVYICLTRFIGDSKVMKWGGSSFQDIQRMPSRGSMVFQPLQINNYQYAILGSDYSFTQVYNWDAEKAKFVKFQELNVQAPRSFTHVSINKRNFLFASSFKGNTQIYKHVIVDLSA
Consider B2, for which the binding entry is reported as “no binding”.

B3: LGI1-R407C (Flag-tagged) (ligand, human, UniProt O95970 35-557, looked up)
chain: KKPAKPKCPAVCTCTKDNALCENARSIPRTVPPDVISLSFVRSGFTEISEGSFLFTPSLQLLLFTSNSFDVISDDAFIGLPHLEYLFIENNNIKSISRHTFRGLKSLIHLSLANNNLQTLPKDIFKGLDSLTNVDLRGNSFNCDCKLKWLVEWLGHTNATVEDIYCEGPPEYKKRKINSLSSKDFDCIITEFAKSQDLPYQSLSIDTFSYLNDEYVVIAQPFTGKCIFLEWDHVEKTFRNYDNITGTSTVVCKPIVIETQLYVIVAQLFGGSHIYKRDSFANKFIKIQDIEILKIRKPNDIETFKIENNWYFVVADSSKAGFTTIYKWNGNGFYSHQSLHAWYRDTDVEYLEIVRTPQTLRTPHLILSSSSQCPVIYQWNKATQLFTNQTDIPNMEDVYAVKHFSVKGDVYICLTRFIGDSKVMKWGGSSFQDIQRMPSRGSMVFQPLQINNYQYAILGSDYSFTQVYNWDAEKAKFVKFQELNVQAPRSFTHVSINKRNFLFASSFKGNTQIYKHVIVDLSA
notes: LGI1 with the ADLTE-causing substitution R407C (c.1219C>T); secreted protein; also called c.1219C>T; source: COS7, co-transfected with HA-ADAM22 or HA-ADAM23 (immunofluorescence); HEK293T, co-transfected, in lysate (co-IP)
Consider B3, for which the binding entry is on record as “binds weakly”.

B4: LGI1-R474Q (Flag-tagged) (ligand, human, UniProt O95970 35-557, looked up)
chain: KKPAKPKCPAVCTCTKDNALCENARSIPRTVPPDVISLSFVRSGFTEISEGSFLFTPSLQLLLFTSNSFDVISDDAFIGLPHLEYLFIENNNIKSISRHTFRGLKSLIHLSLANNNLQTLPKDIFKGLDSLTNVDLRGNSFNCDCKLKWLVEWLGHTNATVEDIYCEGPPEYKKRKINSLSSKDFDCIITEFAKSQDLPYQSLSIDTFSYLNDEYVVIAQPFTGKCIFLEWDHVEKTFRNYDNITGTSTVVCKPIVIETQLYVIVAQLFGGSHIYKRDSFANKFIKIQDIEILKIRKPNDIETFKIENNWYFVVADSSKAGFTTIYKWNGNGFYSHQSLHAWYRDTDVEYLEIVRTPQTLRTPHLILSSSSQRPVIYQWNKATQLFTNQTDIPNMEDVYAVKHFSVKGDVYICLTRFIGDSKVMKWGGSSFQDIQRMPSQGSMVFQPLQINNYQYAILGSDYSFTQVYNWDAEKAKFVKFQELNVQAPRSFTHVSINKRNFLFASSFKGNTQIYKHVIVDLSA
notes: LGI1 with the ADLTE-causing substitution R474Q (c.1421G>A); secreted protein; also called c.1421G>A; source: COS7, co-transfected with HA-ADAM22 or HA-ADAM23 (immunofluorescence); HEK293T, co-transfected, in lysate (co-IP)
As for B4, the binding result is on record as “binds weakly”.

(Values after paper PMC5070869, “Secretion-Positive LGI1 Mutations Linked to Lateral Temporal Epilepsy Impair Binding to ADAM22 and ADAM23 Receptors” (PLoS Genetics, 2016).)
